Results are given in words; binding and its absence hold for the method and conditions named. Binding seen in cells or lysates may run through a third protein. A yes stands for co-enrichment or nearness to the bait. Other partners may have been found.
Target: p53-BirA*-FLAG (human) (UniProt P04637)
Test: proximity labelling

By UniProt entry, the sequences of proteins in these tests, tags left out.
UniProt Q92878: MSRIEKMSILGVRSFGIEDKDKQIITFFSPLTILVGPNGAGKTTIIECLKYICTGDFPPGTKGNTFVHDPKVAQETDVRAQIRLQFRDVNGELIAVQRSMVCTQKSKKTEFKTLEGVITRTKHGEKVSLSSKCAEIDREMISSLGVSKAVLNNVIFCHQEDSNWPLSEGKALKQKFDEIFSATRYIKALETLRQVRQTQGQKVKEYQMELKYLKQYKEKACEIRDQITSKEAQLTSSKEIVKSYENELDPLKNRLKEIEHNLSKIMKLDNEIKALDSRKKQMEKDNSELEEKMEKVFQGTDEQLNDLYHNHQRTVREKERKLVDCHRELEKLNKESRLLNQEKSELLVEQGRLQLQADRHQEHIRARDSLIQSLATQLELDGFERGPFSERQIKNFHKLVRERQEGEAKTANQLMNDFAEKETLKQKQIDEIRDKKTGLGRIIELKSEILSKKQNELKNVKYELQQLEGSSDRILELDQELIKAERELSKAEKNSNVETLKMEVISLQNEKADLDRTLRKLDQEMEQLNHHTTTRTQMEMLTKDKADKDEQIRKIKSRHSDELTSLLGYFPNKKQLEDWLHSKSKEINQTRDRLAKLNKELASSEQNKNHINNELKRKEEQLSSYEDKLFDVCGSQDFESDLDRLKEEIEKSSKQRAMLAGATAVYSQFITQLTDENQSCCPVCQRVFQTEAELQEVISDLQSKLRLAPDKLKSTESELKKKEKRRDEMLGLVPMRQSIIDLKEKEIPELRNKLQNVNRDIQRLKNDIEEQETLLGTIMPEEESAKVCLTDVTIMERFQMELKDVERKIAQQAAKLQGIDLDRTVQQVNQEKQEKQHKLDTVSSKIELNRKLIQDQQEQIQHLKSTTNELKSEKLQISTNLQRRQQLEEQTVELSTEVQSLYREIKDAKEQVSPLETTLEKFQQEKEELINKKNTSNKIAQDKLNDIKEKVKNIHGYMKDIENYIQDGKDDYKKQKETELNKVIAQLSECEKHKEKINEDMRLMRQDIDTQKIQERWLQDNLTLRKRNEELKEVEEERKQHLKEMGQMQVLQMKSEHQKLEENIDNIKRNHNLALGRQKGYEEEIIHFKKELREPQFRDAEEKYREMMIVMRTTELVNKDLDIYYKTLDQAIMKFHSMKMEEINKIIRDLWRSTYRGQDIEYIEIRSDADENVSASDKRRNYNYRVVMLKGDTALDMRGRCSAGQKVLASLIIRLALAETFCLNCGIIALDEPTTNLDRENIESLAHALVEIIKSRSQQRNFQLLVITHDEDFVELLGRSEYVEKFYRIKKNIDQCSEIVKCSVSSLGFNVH

binding | Substance
binds | SUMO1 (from UniProt P63165 1-97)
binds | structural maintenance of chromosome (SMC) family member (Rad50) (from UniProt Q92878 1-1312)
